Several values for one entry are separate records, joined by “and”; a condition that tells them apart may be missing. Identical values can stand only once. Hit rate of the full screen: of about 71,000 compounds, about 310 (0.44%) were called active. The inconclusive results got no clear call from the source; some entries with a clear call stand among them for comparison. Calls follow the shape of the dose curve; as a rule, active = well fitted curve in either direction with a large enough effect; inconclusive = small, poorly fitted or top-dose-only effect, or another doubt; inactive = flat fitted curve, though single readings scatter. Potencies of inconclusive entries are doubtful fits and often do not repeat.
test system: Hsp90 C-terminal peptide / TPR2A (Hop) interaction, human; test: qHTS Assay for Disrupters of an Hsp90 Co-Chaperone Interaction; details: AlphaScreen TPR2A-His6 binding biotin-Hsp90 C-terminal peptide; activity change, negative = inhibition: at 57 µM (top of the series) unless noted
% is scaled to controls: 0 for no effect and ±100 for the full control effect; potency is read from the fitted curve at half-maximal effect.

| Structure (SMILES) | Potency | activity change, negative = inhibition |
| --- | --- | --- |
| COc1cc2c3c(c1)/C(=C1/SC(NC(C)=O)=NC1=O)C(=O)N3C(C)(C)C=C2C | active: 25.1 µM [activator] |  |
| O=C(NCCc1ccccc1)c1cc2ncc(Br)cn2n1 | inconclusive: 39.8 µM [inhibitor, single point] |  |
| COc1ccc(-n2ncc3c(N4CCCc5ccccc54)ncnc32)cc1 | inconclusive: 39.8 µM [activator, single point] |  |
| O=C(CSc1n[nH]c(-c2ccccc2)n1)c1ccc(O)c(O)c1 |  | inactive: -7.35% |
| CC(=NCCCn1ccnc1)C1=C(O)c2ccccc2C1=O | active: 12.6 µM |  |
| CN1CCc2c(sc3c2C(=O)NC(c2ccc(-c4cccc(Cl)c4)o2)N3)C1 (centres undefined) |  | inconclusive: 40.5% [at 2.3 µM] |
| O=C1C=CC2=C3c4cc(O)c(O)cc4C[C@@]3(O)COC2=C1O | inconclusive: 15.8 µM [inhibitor, partial curve] |  |
| CSC1=N/C(=C\C=C\c2cccs2)C(=O)S1 | inconclusive: 31.6 µM [inhibitor, single point] |  |
| Cc1c(C)c2c(c(C)c1O)CC[C@@](C)(CN1CCN(c3cc(N4CCCC4)nc(N4CCCC4)n3)CC1)O2 | inconclusive: 31.6 µM [inhibitor, partial curve] |  |
| N#Cc1cccc(-c2nccc(NCc3cccnc3)n2)c1 |  | inactive: 5.97% |
| N=C(N)SCCON1C(=O)c2ccccc2C1=O |  | inactive: 0.356% [at 11 µM] |
| c1ccc(-c2ccc(N3CC4(CCNCC4)C3)cc2)cc1 | inconclusive: 15.8 µM [inhibitor, partial curve] |  |
| Cc1ccc(N2C(=O)c3ccc(N)cc3C2=O)cc1 |  | inconclusive: 110% |
| COC(=O)CC1C(=O)NCCN1C(=O)c1ccccc1 (centres undefined) |  | inconclusive: 44.2% |
| Cc1cc(N)c2ccccc2[n+]1CCCCCCCCCCCCCC[n+]1c(C)cc(N)c2ccccc21 | inconclusive: 31.6 µM [inhibitor, partial curve] |  |
| CCOC(=O)C(C(C)=O)=C1SC2CS(=O)(=O)CC2S1 (centres undefined) |  | inconclusive: 38.1% |
| Cc1sc2ccccc2[n+]1CCC(=O)O |  | inactive: -2.11% [at 11 µM] |
| Cc1ccc(OCC(=O)Nc2ccc(N3CCCC3)cc2)cc1C | inconclusive: 3.98 µM [inhibitor, single point] |  |
| CN(C)c1ncc2nc(CCc3ccccc3)c(=O)n(Cc3cccs3)c2n1 | active: 25.1 µM [activator] |  |
| c1ccc(-c2nn3c(-c4ccncc4)nnc3s2)nc1 | inconclusive: 25.1 µM [inhibitor, single point] |  |
| COc1ccc(S(=O)(=O)N2CCN(c3ccccn3)CC2)cc1OC |  | inconclusive: 38.8% |
| CCCC(c1nnnn1Cc1ccco1)N1CCN(c2cc(Cl)ccc2C)CC1 (centres undefined) |  | inconclusive: 92.3% |
| O=S(=O)(c1ccccc1)N1CCC2(CC1)CN(c1ccncc1)C2 |  | inconclusive: 61.4% |
| FC(F)(F)c1cnc2c(c1)Nc1ccccc1S2 |  | inactive: 0.17% |
| O=C(CCc1nc2ccccc2[nH]1)NC1CCCCC1 |  | inconclusive: 44% [at 2.3 µM] |
| O=C(Nc1ccc2nc(C3CC3)n(Cc3ccc(F)cc3)c(=O)c2c1)c1ccco1 |  | inconclusive: 23.9% |
| C[C@@H]1C(=O)O[C@H]2[C@@H](O)[C@@]34[C@H]5C[C@H](C(C)(C)C)[C@@]36[C@H](OC(=O)[C@@H]6O)O[C@@]4(C(=O)O5)[C@@]12O |  | inconclusive: 51.3% |

| Structure (SMILES) | Potency | activity change, negative = inhibition |
| --- | --- | --- |
| CCn1nnc(NC(=O)COc2cc(C)ccc2C(C)C)n1 |  | inconclusive: 64.5% |
| COc1cc(-c2ccc(N=Nc3ccc4c(S(=O)(=O)O)cc(S(=O)(=O)O)c(N)c4c3O)c(OC)c2)ccc1N=Nc1ccc2c(S(=O)(=O)O)cc(S(=O)(=O)O)c(N)c2c1O | inconclusive: 10 µM [inhibitor, partial curve] and active: 3.98 µM |  |
| CCOC(=O)c1c(-c2ccc(C)o2)csc1N | inconclusive: 3.98 µM [inhibitor, single point] |  |
| COc1ccc(CN2C(=O)c3cccnc3C2Nc2ccc(OC)c(Cl)c2)cc1 (centres undefined) |  | inactive: -10.7% |
| Cc1nc2nc[nH]n2c(=O)c1CCC(C)C |  | inconclusive: 54.2% |
| CCOC(=O)CSC(CC)C(=O)Nc1nnc(C(C)C)s1 (centres undefined) |  | inactive: -1.02% |
| O=C(c1cccs1)N(CC1CCCO1)c1nc(-c2ccccc2)cs1 (centres undefined) | inconclusive: 31.6 µM [activator, single point] |  |
| COCCCNC(=O)CC1Oc2ccccc2NC1=O (centres undefined) |  | inconclusive: 44.3% |
| Cc1ccccc1N1C(=O)[C@@H]2Cc3ccccc3CN2C1=O |  | inconclusive: 46.1% |
| Cc1cccc(Nc2nc(N)nc(CN3CCN(c4ccccc4F)CC3)n2)c1 | inconclusive: 31.6 µM [inhibitor, single point] |  |
| CCN(Cc1ccccc1)C(=O)CCCOc1ccccc1 |  | inconclusive: 92% [at 11 µM] |
| Cc1ccc2nc(Nc3ncc4c(n3)CCCC4=O)nc(C)c2c1 |  | inactive: -5.44% |
| COc1ccc(CC(=O)OCc2cc3ccccc3[nH]c2=O)cc1 |  | inconclusive: 48.9% |
| Nc1cc2c(nc3c4ccccc4c(N)cc3[n+]2-c2cccc3ccccc23)c2ccccc12 (tested in a mixture with another compound) | active: 2.51 µM |  |
| Cc1sc2ncnc(SCc3ccco3)c2c1C | inconclusive: 31.6 µM [activator, single point] |  |
| CCOc1ccc(C(=O)Nc2ccc(N3CCCC3)cc2)cc1 |  | inconclusive: -31.5% |
| CC(C)CCNC(=O)NC(=O)CSc1nnc(-c2ccccc2F)n1N |  | inconclusive: 36.6% |
| CCCN1Cc2cccc(C(=O)Nc3ccc(N4CCN(CC)CC4)cc3)c2C1=O |  | inactive: -1.99% |
| Cc1cc(C)c(C#N)c(SCC(=O)OC2CCCCC2)n1 | active: 31.6 µM [activator] |  |
| COc1ccc(C(=O)Nc2ccc(Cl)cc2C(=O)NCc2ccco2)cc1OC |  | inactive: -1.08% |
| Cc1ccc(C)c(S(=O)(=O)NC(CCC(N)=O)C(=O)O)c1 (centres undefined) |  | inconclusive: 21.4% |
| Cc1cccc(-c2ccc(C=Nc3c(C)n(C)n(-c4ccccc4)c3=O)o2)c1 |  | inconclusive: -31.9% |
| COc1cccc(C(=O)NCc2ccccc2OC)c1 |  | inconclusive: 50.1% |
| c1ccc(Cn2nnc3c(N4CCc5ccccc5C4)ncnc32)cc1 | inconclusive: 31.6 µM [activator, single point] |  |
| CCC[C@@H]1C[C@@]1(CCC)C(NC(=O)c1ccco1)c1ccc(Cl)cc1 (some centres undefined) |  | inconclusive: 114% |
| CN1CCc2ccccc2Cc2[nH]c3ccccc3c2CC1 |  | inconclusive: 54.4% |
| COc1cc2c(cc1OC)C(C(=O)O)C(c1cc(Br)c(O)c(OC)c1)N(C)C2=O (centres undefined) |  | inconclusive: 39.9% |

| Structure (SMILES) | Potency | activity change, negative = inhibition |
| --- | --- | --- |
| CN1CCC[C@@H]1c1cccnc1.O=C(O)c1ccccc1O.O=C([OH2+])c1ccccc1O.O=C([OH2+])c1ccccc1O.O=C([OH2+])c1ccccc1O.[Cu] |  | inactive: -0.131% [at 11 µM] |
| CCNC(=O)[C@@H]1O[C@@H](n2cnc3c(N)nc(NCCc4ccc(CCC(=O)O)cc4)nc32)[C@H](O)[C@@H]1O |  | inconclusive: 64.8% |
| O=C(c1cccnc1)N1CCCc2ccccc21 |  | inactive: -6.24% [at 11 µM] |
| O=C(Nc1cccc(C(=O)N2CCOCC2)c1)c1ncn[nH]1 | active: 25.1 µM |  |
| Cc1ccc(NC(=O)CSC(N)=O)cc1Cl |  | inconclusive: 45.1% |
| N#Cc1cnn(Cc2ccccc2)c1/N=C/N1CCOCC1 |  | inconclusive: 62.3% |
| Oc1c(C(Nc2ccccn2)c2ccccn2)ccc2cccnc12 (centres undefined) | active: 3.16 µM |  |
| CCOc1ccc2[nH]c(=O)c(CN(Cc3cccs3)Cc3nnnn3C(C)(C)CC)cc2c1 |  | inactive: -0.387% |
| CCCn1c(CNc2ccccc2O)nc2ccccc21 | inconclusive: 25.1 µM [inhibitor, partial curve] |  |
| Cc1ccc(C=Nc2ccc(N(C)C)cc2)o1 | inconclusive: 25.1 µM [inhibitor, single point] |  |
| CCCCOc1ccc(-c2nnn(CCC(=O)N3CCOCC3)n2)cc1 |  | inactive: -2.51% |
| O=c1ccc2ccc(O)c(O)c2o1 |  | inconclusive: 58.4% |
| N[C@@H](Cc1ncccn1)C(=O)O |  | inactive: -2.59% [at 11 µM] |
| CC[N+](C)(CC)CCN1C(=O)c2ccccc2S1(=O)=O |  | inactive: 0.035% [at 11 µM] |
| Cc1cccc(NCN2C(=O)c3ccncc3C2=O)n1 |  | inconclusive: 36.8% |
| CN1CCN(c2ncc3nc(-c4cccs4)c(=O)n(CCc4ccccc4)c3n2)CC1 |  | inactive: -5.8% |
| Cc1cccc(-n2nnnc2SCc2csc(-c3ccccc3)n2)c1 | inconclusive: 31.6 µM [activator, single point] |  |
| O=C(CCn1nc(-c2ccc(Cl)cc2)ccc1=O)NCc1ccccn1 | inconclusive: 25.1 µM [inhibitor, partial curve] |  |
| C=C1C(C(=O)N2CCN(C)CC2)C1C(=O)N1CCN(C)CC1 (centres undefined) |  | inconclusive: 45.7% |
| CSc1ccc(C(=O)c2[nH]c(=O)[nH]c2C)cc1 |  | inconclusive: 64.1% |
| CC(C)CCNC(=O)CCn1nc(-c2ccccc2)ccc1=O |  | inconclusive: 37.4% |
| CN(C)c1ncc2nc(-c3ccccc3)c(=O)n(Cc3cccs3)c2n1 | inconclusive: 5.01 µM [activator, single point] |  |
| CCOC(=O)c1ccc2c(c1)C(=O)N(C1CCCCC1)C2=O |  | inconclusive: 57.1% |
| CCn1c(SCC(=O)Nc2ccccc2C(=O)OC)nnc1-c1ccoc1C |  | inactive: -3.57% |
